Reference: article PMC4621513

Protein sequences, listed by entry. Tags and fused reporters are not part of them. Lines headed by an entry give the natural chain unless they say otherwise; changes in a name come on top.
UniProt Q9HC16: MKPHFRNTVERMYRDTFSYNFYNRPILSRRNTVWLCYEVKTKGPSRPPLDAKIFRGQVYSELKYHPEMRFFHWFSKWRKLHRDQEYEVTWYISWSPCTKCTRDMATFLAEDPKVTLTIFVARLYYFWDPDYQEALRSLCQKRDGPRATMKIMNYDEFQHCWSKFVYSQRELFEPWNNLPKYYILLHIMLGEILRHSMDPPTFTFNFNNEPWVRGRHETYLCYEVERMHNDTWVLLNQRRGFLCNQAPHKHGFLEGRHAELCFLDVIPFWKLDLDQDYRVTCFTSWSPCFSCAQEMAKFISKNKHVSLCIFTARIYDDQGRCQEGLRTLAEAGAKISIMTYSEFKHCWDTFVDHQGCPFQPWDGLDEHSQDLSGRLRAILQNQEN

Target: APOBEC3G (A3G) (UniProt Q9HC16)
Test: AFM force spectroscopy
Conditions: two-mode binding eliminated with 27 nt; 5' thiol; Force spectroscopy probing buffer: 50 mM HEPES, 100 mM NaCl, 5 mM MgCl2, 1 mM DTT (pH and temperature not given); recombinant protein; residues 1-384; protein details: mycHis (C-terminal); single-stranded DNA

Q: Does “TTTTAAAGAGAAAAACCCAAAAGTGAA [27 nt deaminase specific ssDNA]” bind?
A: binds

Construct, isoform or probe ends are uncertain for at least one entry. At least one verdict was read from the data and is not stated in words by the source.
